Measured values taken from the odorant receptor screen of Mainland et al. (2015).
“And” between values parts separate entries of the source, which are not always exact repeats. Equal entries are not always repeated. Some of the results follow. Each value is one well over the wells without odorant, computed here; the data are noisy.

How the values were obtained:
Test in all cases: odorant receptor activation (CRE luciferase / Renilla) (fold of no-odor wells); higher = more activation
Conditions in all cases: 100 µM
[1] = tested on: OR2F2 A98V clone 1087
[2] = tested on: OR2G2 P24A/V120L/R236G clone 1349
[3] = tested on: OR2G2 clone 1385
[4] = tested on: OR2G3 clone 1328
[5] = tested on: OR2G3 clone 1382
[6] = tested on: OR2G6 clone 1487
[7] = tested on: OR2H1 clone 1393
[8] = tested on: OR2H2 L30F/A48V clone 1061
[9] = tested on: OR2H2 clone 1066
[10] = tested on: OR2J2 T111A clone 1073

Compound | odorant receptor activation [1] | odorant receptor activation [2] | odorant receptor activation [3] | odorant receptor activation [4] | odorant receptor activation [5] | odorant receptor activation [6] | odorant receptor activation [7] | odorant receptor activation [8] | odorant receptor activation [9] | odorant receptor activation [10]
CCC(C)=O [2-butanone] | 17.3 | 0.979 | 1.9 | 0.908 | 1.14 | 0.857 | 1.59 | 2.43 | 4.05 | 1.99
CCCCOC(C)=O [butyl acetate] | 1.22 | 0.734 | 0.155 | 0.828 | 0.241 | 1.05 | 0.173 | 1.19 | 1.17 | 0.943
CS [methanethiol] | 1.02 | 0.836 | 0.999 | 1.02 | 0.884 | 0.743 | 0.845 | 0.986 | 1.55 | 1.03
CCOc1cc(C=O)ccc1O [ethyl vanillin] | 0.533 and 1.18 | 1.24 and 2.28 and 1.01 | 1.11 and 1.2 | 1.1 and 1.21 | 1.02 and 1.29 | 1.1 and 2.46 and 1.03 | 1.16 and 1.39 | 1.41 and 1.04 | 1.07 and 1.31 | –
